From article PMC2713237
No constants are given. Whether binding was seen depends on the method and setting. In cells and extracts the contact can be indirect. Here binding means that the protein was enriched with, or labelled near, the bait; the list need not be complete. No binding means not detected with the bait.

Protein sequences, listed by entry. Tags and fused reporters are not part of them. Residues count along the entry.
UniProt P01558, residues 116-319: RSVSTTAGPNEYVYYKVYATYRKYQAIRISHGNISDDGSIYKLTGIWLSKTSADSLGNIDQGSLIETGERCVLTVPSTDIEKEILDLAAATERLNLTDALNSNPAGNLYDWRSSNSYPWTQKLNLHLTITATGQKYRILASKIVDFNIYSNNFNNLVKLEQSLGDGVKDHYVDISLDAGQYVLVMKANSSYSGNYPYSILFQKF
UniProt Q5I0H3, residues 1-97: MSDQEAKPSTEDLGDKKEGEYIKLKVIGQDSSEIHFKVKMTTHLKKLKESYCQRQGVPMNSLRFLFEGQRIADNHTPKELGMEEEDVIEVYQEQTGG
UniProt A0A0G2K2P5: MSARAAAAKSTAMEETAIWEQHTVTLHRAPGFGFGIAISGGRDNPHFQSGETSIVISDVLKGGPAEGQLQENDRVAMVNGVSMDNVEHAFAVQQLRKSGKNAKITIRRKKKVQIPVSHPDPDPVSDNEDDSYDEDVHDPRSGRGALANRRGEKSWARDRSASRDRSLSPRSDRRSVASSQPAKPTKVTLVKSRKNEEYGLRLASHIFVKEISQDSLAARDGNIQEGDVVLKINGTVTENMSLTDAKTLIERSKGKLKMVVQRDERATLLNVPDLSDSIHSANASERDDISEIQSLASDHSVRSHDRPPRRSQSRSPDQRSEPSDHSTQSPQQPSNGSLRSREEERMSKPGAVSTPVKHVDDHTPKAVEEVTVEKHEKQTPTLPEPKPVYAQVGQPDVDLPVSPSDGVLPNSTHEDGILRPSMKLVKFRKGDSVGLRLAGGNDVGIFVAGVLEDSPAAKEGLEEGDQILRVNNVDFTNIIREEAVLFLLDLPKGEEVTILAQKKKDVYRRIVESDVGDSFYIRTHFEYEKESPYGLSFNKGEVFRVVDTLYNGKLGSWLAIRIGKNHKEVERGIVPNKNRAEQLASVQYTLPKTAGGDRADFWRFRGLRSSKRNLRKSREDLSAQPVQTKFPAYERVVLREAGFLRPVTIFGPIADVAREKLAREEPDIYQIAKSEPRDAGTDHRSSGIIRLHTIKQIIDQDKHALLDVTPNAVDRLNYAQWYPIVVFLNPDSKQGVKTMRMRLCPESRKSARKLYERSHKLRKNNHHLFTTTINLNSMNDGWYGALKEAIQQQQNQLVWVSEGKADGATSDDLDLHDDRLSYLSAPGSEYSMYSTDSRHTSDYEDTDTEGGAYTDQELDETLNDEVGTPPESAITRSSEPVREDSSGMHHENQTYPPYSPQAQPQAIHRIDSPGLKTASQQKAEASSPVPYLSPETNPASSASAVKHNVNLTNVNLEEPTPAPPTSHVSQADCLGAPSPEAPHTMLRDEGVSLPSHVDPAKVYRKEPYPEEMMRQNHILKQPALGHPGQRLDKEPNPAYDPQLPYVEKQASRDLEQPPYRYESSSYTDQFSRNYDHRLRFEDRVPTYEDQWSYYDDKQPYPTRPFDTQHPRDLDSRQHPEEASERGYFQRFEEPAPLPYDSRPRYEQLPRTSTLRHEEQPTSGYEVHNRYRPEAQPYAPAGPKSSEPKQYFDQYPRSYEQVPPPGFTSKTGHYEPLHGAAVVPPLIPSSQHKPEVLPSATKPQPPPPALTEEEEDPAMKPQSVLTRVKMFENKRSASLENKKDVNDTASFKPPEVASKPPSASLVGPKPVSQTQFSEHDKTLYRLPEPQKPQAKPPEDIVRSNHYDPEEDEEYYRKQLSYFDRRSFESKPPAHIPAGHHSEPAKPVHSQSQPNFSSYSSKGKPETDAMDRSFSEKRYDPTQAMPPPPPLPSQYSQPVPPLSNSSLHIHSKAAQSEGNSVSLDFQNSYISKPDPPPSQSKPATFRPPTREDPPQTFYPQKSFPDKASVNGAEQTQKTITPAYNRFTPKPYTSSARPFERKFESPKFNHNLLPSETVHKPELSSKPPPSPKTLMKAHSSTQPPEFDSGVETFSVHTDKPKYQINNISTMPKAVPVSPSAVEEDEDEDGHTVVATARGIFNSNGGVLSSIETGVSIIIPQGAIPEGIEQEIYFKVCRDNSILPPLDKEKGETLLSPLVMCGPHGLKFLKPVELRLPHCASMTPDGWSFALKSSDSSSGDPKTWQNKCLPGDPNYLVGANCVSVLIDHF

Molecular target: GST-CPE_(116–319) fusion protein (Clostridium perfringens) (UniProt P01558)
Experiment: affinity purification with mass spectrometry; only the target purified

Small ubiquitin-related modifier 1 (SUMO-1) (from UniProt Q5I0H3 1-97)
binding: binds

ZO-1 (from UniProt A0A0G2K2P5 1-1765)
binding: no binding
